Source: publication PMC3521694
No constants are given. Whether binding was seen depends on the method and setting. Binding seen in cells or lysates may run through a third protein.

The chains behind the UniProt entries cited, without tags or fusion partners. Residues count along the entry.
UniProt Q5ZRP9, residues 1-316: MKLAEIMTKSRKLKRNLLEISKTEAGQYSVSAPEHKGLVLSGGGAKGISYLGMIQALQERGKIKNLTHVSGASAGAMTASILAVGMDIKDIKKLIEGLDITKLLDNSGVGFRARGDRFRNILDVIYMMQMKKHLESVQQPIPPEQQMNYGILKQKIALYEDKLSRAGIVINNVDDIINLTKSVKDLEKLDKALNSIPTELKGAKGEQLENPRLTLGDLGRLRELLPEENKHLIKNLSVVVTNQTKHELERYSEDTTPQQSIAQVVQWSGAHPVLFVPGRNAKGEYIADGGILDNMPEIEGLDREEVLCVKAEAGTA

Target: T1, endogenous Rab5b of RAW264.7 macrophages (mouse (endogenous in RAW264.7)) (UniProt P61021)
T1 sequence: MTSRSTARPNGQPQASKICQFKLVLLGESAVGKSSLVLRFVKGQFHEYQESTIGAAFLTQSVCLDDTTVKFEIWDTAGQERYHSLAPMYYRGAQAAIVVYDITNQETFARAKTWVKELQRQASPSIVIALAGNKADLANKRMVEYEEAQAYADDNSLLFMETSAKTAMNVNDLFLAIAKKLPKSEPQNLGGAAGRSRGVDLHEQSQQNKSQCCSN
Assay: co-IP

Substance: Flag-tagged VipD(1-316) (from UniProt Q5ZRP9 1-316) (domain or fragment)
- binding: no binding
